This is one part of the list.
assay: Mycobacterium tuberculosis H37Rv growth inhibition, confirmatory dose response, cytotoxicity (AID 1332);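 note: bacteria incubated 7 days before adding Alamar blue readout reagent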; details: M. tuberculosis H37Rv growth inhibition; measured here: IC50 H37Rv replicates

| SMILES | IC50 [µg/mL] |
| --- | --- |
| C/C1=C2N=C(/C=C3N=C(/C(C)=C4\[N-][C@@](C)([C@@H]5N=C1[C@](C)(CCC(=O)NC[C@@H](C)OP(=O)([O-])O[C@H]1[C@@H](O)[C@@H](n6cnc7cc(C)c(C)cc76)O[C@@H]1CO)[C@H]5CC(N)=O)[C@@](C)(CC(N)=O)[C@@H]4CCC(N)=O)[C@@](C)(CC(N)=O)[C@@H]\3CCC(N)=O)C(C)(C)[C@@H]/2CCC(N)=O.[C-]#N.[Co+3] | > 20 |
| NC(=O)Nc1ccc([As](=O)(O)O)cc1 | > 20 |

— PubChem BioAssay AID1332 (Southern Research Institute, 2008)
